Out of some 360,000 compounds screened, about 7,500 (2.1%) were called active. Inconclusive results, whose numbers are uncertain, are shown with a selection of clear calls. Calls come from the whole dose curve; as a rule, active = well fitted inhibition curve with a large enough effect; inconclusive = small, poorly fitted or top-dose-only effect, or effect the other way; inactive = flat fitted curve, though single readings scatter. Potencies beside an inconclusive call are fits to weak or partial responses and may not hold up.
Test: Nrf2 qHTS screen for inhibitors; note: nearly all actives have a fitted effect of over 60% in size
Conditions: A549 ARE-Fluc reporter, luciferase luminescence, 18-24 h; activity change, negative = inhibition: at 46 µM (top of the series)
Text: NIH Molecular Libraries Probe Production Network [MLPCN]
NIH Chemical Genomics Center [NCGC]
Assay Provider: Shyam Biswal, Johns Hopkins University
Nrf2 is a transcription factor that maintains cellular redox homoestasis and protects cells from xenobiotics. Nrf2 binds to the antioxidant response element (ARE) to induce gene expression of a broad spectrum of genes that encode for antioxidants. […] Finding a small molecule that act as an inhibitor of Nrf2 function would represent a novel therapeutic target that could lead to improvement in survival of patients undergoing chemo- and/or radio- therapy.
This is the Nrf2 activity measured in the luminescent read.
1. Shibata, T., et al., Genetic Alteration of Keap1 Confers Constitutive Nrf2 Activation and Resistance to Chemotherapy in Gallbladder Cancer. Gastroenterology, 2008.
2. Sjoblom, T., et al., The consensus coding sequences of human breast and colorectal cancers. Science, 2006. 314(5797): p. 268-74.
NCGC Assay Protocol Summary:
A concentration-response assay was performed with A549 ARE_Fluc cells which are suspended in 5% FBS OPTI-MEM. Five uL were dispensed into 1536-well white TC-treated plate using the Kalypsys dispenser to achieve a density of 5000 cells/well in all columns except column 1. The plate is incubated at 37deg C at 5% CO2 for 2 hours before 23 nL of compounds are added with the Kalypsys pin tool equipped with a 1,536-pin array containing 10-nL slotted pins (FP1S10, 0.457-mm diameter, 50.8 mm long; V&P Scientific). The control compounds Budesonide and Staurosporine are both added at a concentration of 2mM and Budesonide is also added as a 1:10 titration, starting at 200uM, to achieve dose-response. After an 18-24 hour incubation at 37deg C at 5% CO2, 5ul of medium is added to column 1. Afterwards 1ul of 5x of CellTiter-Fluor (Promega) is added to every well. The plate is then incubated at 37deg C at 5% CO2 for 30 minutes before they are read on the ViewLux (Perkin Elmer) for a fluorescent read Ex=405(10)/Em=525(10) for a 3 second exposure, 2x binning, and high gain. Then 3 uL of 3x BugLite is dispensed into all wells and the plate is incubated at ambient room temperature for 15 minutes. Afterwards another ViewLux read is performed using the clear filter to get a luminescent read with the settings of 40 second exposure, 2x binning, and high gain. Cytotoxicity is assessed through the first fluorescent read and then biochemical activity against Nrf2 is measured in the luminescent read.
% is set by controls: 0 for no effect and ±100 for the full control effect; potency is the fitted concentration of half-maximal effect.

Row | Compound | Potency | activity change, negative = inhibition
1 | COc1ccc(C/C(N)=N/OC(=O)C(c2ccccc2)c2ccccc2)cc1OC | active: 23.1 µM | 
2 | O=C(CSc1nnc(NC(=O)c2ccccc2F)s1)NCC1CCCO1 (stereo not drawn) | inconclusive: 20.6 µM [activator, partial curve, poor fit] | 
3 | Cc1ccc(N(CC(=O)Nc2cc(Cl)ccc2Oc2ccccc2)S(C)(=O)=O)c(C)c1 | inconclusive: 29.1 µM [falling, single point] | 
4 | Cc1cccc(C(=O)NNC(=S)NC(=O)c2cccs2)c1 | inconclusive: 29.1 µM [falling, single point] | 
5 | CC(=O)N(C)c1ccc(N=Nc2c(C)[nH]n(C(N)=S)c2=O)cc1 | inconclusive: 1.46 µM [activator, partial curve] | 
6 | COc1cccc2cc(C(=O)N(Cc3cccs3)Cc3cccs3)c(=O)oc12 |  | inactive: 10.5%
7 | CCN(CC)C(=O)Cn1cc(S(=O)(=O)CC(=O)Nc2ccc3c(c2)OCCO3)c2ccccc21 | inconclusive: 20.6 µM [activator, single point] | 
8 | CC1C(=O)N2CCCc3cc(S(=O)(=O)N4CCN(c5cccc(Cl)c5)CC4)cc1c32 (stereo not drawn) | inconclusive: 25.9 µM [falling, single point] | 
9 | CCOC(=O)c1c(N=CN(C)C)c(C#N)c2n1CCCC2 | inconclusive: 13 µM [falling, partial curve, poor fit] | 
10 | Cc1c(/C=N/NC(=O)c2ccccc2O)c2ccccn2c1C(=O)c1ccc(F)cc1 | active: 20.6 µM | 
11 | O=C(COc1cccnc1[N+](=O)[O-])Nc1cc(Cl)ccc1Cl | inconclusive: 18.4 µM [activator, single point] | 
12 | CC(C)Oc1ccc(CNC(=O)Cn2c(-c3cccs3)cc3ccccc32)cc1 | inconclusive: 5.8 µM [falling, partial curve] | 
13 | O=C(CSc1nnc2scc(-c3ccccc3)n12)Nc1nsc(-c2ccccc2)n1 | active: 16.4 µM | 
14 | CC1([N+](=O)[O-])COC(C=Cc2ccccc2)OC1 (stereo not drawn) | inconclusive: 18.4 µM [activator, single point] | 
15 | Cc1ccc(CONC(=O)c2ccccc2)cc1 | inconclusive: 10.3 µM [activator, partial curve] | 
16 | COc1cccc(C(=O)Nc2ccc(S(=O)(=O)N(Cc3ccccc3)c3ccccc3)cc2)c1 | inconclusive: 14.6 µM [falling, partial curve] | 
17 | CCS(=O)(=O)N1CCc2cc(C(=O)NCCc3ccc(OC)c(OC)c3)ccc21 | active: 18.4 µM | 
18 | COc1ccc(CCNc2oc(COc3ccccc3F)nc2C#N)cc1OC | inconclusive: 23.1 µM [falling, partial curve, poor fit] | 

— PubChem BioAssay AID504444 (National Center for Advancing Translational Sciences (NCATS), 2011)
